Data published in US11407825B2, “NaPi2b-targeted polymer antibody-drug conjugates and methods of use thereof” (Mersana Therapeutics, Inc., priority 2018, dated 2022).

Test system: NaPi2b expressing tumors
Assay: Phase 1b study of XMT-1536: duration on study and reason for discontinuation
Assay type: in vivo, human
Excerpt: The study presented herein is an open label, multi-center Phase 1b study of XMT-1536 administered as an intravenous infusion once every three or four weeks. The dose escalation (DES) part of the study will establish the maximum tolerated dose (MTD) or recommended Phase 2 dose (RP2D) for XMT-1536 in patients with a number of tumor types likely to express NaPi2b, with a focus on patients with platinum-resistant ovarian cancer and non-squamous non-small cell lung cancer (NSCLC). […] The RP2D may differ from the MTD and may take into account tolerability, pharmacokinetic and pharmacodynamic measures, and efficacy of XMT-1536 based on RECIST 1.1. After the first cycle, patients may continue to receive XMT-1536 until disease progression provided the drug is well-tolerated and patients continue to derive clinical benefit in the opinion of the Investigator. The DES segment of the study utilized an accelerated titration design. The first 3-week cycle of treatment constitutes the dose limiting toxicity (DLT) evaluation period. For the first two dose levels, a minimum of 1 patient was treated at each dose level. If this patient experiences a treatment-emergent adverse event of Grade 2 or higher, 2 additional patients will be added at this dose level, and the study will subsequently follow a 3+3 design, as described below. […] Starting with Dose Level 3, the study will follow a standard 3+3 design, with 3 patients enrolled initially at each dose level. […] However, in the event of 1 DLT, 3 additional patients will be enrolled at the same dose level. Any dose level with 2 or more DLTs will be considered to exceed the MTD and subsequent patients will be enrolled at lower dose level(s). After the first cycle, patients may continue to receive XMT-1536 until disease progression if the drug is well-tolerated and patients continue to derive clinical benefit in the opinion of the Investigator.
After an August 2018 protocol amendment, each cycle will be 4-week (28 day) dose cycle. The first two, 4-week cycles of treatment (56 days) constitutes the dose limiting toxicity (DLT) evaluation period. Beginning with this amendment, up to 10 patients will be enrolled for evaluation at 20.0 mg/m^2 under the new 4-week cycle dose regimen. If that dose is cleared by the SRC, subsequent dose groups will follow a modified 3+3 design. Three patients will be enrolled initially and if toxicity issues arise, the SRC will review all pertinent data and may decide to add more patients to fully evaluate a dose in question and/or lower the dose. […] The observation period for DLTs is 56 days, between Day 1 through the end of Cycle 2 which includes the pre-dose assessments before receiving the Cycle 3 dose. A maximum of ten patients will be enrolled per dose level prior to the SRM. that will be conducted no later than 5 days after at least the sixth patient dosed in each level has completed Cycle 2, Day 28 evaluations. The data available for the patients dosed in all prior will be factored into the data review for each applicable dose escalation SRM. Any dose level with 2 or more DLTs occurring in 6 or fewer treated patients will be considered to exceed the MTD and subsequent patients will be enrolled at lower dose level(s). After the second cycle, patients may continue to receive XMT-1536 until disease progression if the drug is well-tolerated and patients continue to derive clinical benefit in the opinion of the Investigator. After completion of DES, the EXP segment of the study will be opened.
Treatment will continue indefinitely unless one of the following occurs: disease progression, inter-current illness that prevents further administration of treatment, unacceptable adverse events or pregnancy, patient non-compliance with the protocol, patient withdraws consent for participation from the study, and/or general or specific changes in the patient's condition render the patient unacceptable for further treatment in the judgment of the Investigator.

B1: XMT-1536: about 10-15 molecules of auristatin F-hydroxypropyl amide conjugated to a cysteine moiety of NaPi2b monoclonal antibody XMT-1535 via a PHF scaffold (conjugate, chains of the INN, looked up)
VH: QVQLVQSGAEVVKPGASVKMSCKASGYTFTGYNIHWVKQAPGQGLEWIGAIYPGNGDTSYKQKFRGRATLTADTSTSTVYMELSSLRSEDSAVYYCARGETARATFAYWGQGTLVTVSS
VL: DIQMTQSPSSLSASVGDRVTITCSASQDIGNFLNWYQQKPGKTVKVLIYYTSSLYSGVPSRFSGSGSGTDYTLTISSLQPEDFATYYCQQYSKLPLTFGQGTKLELK
modifications: auristatin F-hydroxypropyl amide via PHF scaffold
notes: about 10-15 molecules of auristatin F-hydroxypropyl amide conjugated to a cysteine moiety of NaPi2b monoclonal antibody XMT-1535 via a PHF scaffold
Duration on Study Min/Max (DL 1, 3 mg/m^2, 21-day cycle, N = 1, as of August 2019): 4 cycles
Duration on Study Min/Max (DL 1, 3 mg/m^2, 21-day cycle, N = 1, as of February 2019): 4 cycles
Duration on Study Min/Max (DL 2, 6 mg/m^2, 21-day cycle, N = 1, as of August 2019): 2 cycles
Duration on Study Min/Max (DL 2, 6 mg/m^2, 21-day cycle, N = 1, as of February 2019): 2 cycles
Duration on Study Min/Max (DL 3, 12 mg/m^2, 21-day cycle, N = 7, as of August 2019): 1 to 4 cycles
Duration on Study Min/Max (DL 3, 12 mg/m^2, 21-day cycle, N = 7, as of February 2019): 1 to 4 cycles
Duration on Study Min/Max (DL 4, 20 mg/m^2, 21-day cycle, N = 6, as of August 2019): 1 to 10 cycles
Duration on Study Min/Max (DL 4, 20 mg/m^2, 21-day cycle, N = 6, as of February 2019): 1 to 10 cycles
Duration on Study Min/Max (DL 4A, 20 mg/m^2, 28-day cycle, as of August 2019): 1 to 12 cycles
Duration on Study Min/Max (DL 4A, 20 mg/m^2, 28-day cycle, as of February 2019): 1 to 6 cycles
Duration on Study Min/Max (DL 5, 30 mg/m^2, 21-day cycle, N = 4, as of August 2019): 1 to 4 cycles
Duration on Study Min/Max (DL 5, 30 mg/m^2, 21-day cycle, N = 4, as of February 2019): 1 to 4 cycles
Duration on Study Min/Max (DL 5A Additional, 30 mg/m^2, 28-day cycle, N = 7, as of August 2019): 2 cycles
Duration on Study Min/Max (DL 5A, 30 mg/m^2, 28-day cycle, N = 7, as of February 2019): 2 to 3 cycles
Duration on Study Min/Max (DL 5A, 30 mg/m^2, 28-day cycle, N = 8, as of August 2019): 2 to 6 cycles
Duration on Study Min/Max (DL 6, 40 mg/m^2, 21-day cycle, N = 1, as of August 2019): 1 cycle
Duration on Study Min/Max (DL 6, 40 mg/m^2, 21-day cycle, N = 1, as of February 2019): 1 cycle
Duration on Study Min/Max (DL 6A, 28-day cycle, N = 7, as of August 2019): 2 cycles
maximum duration on study for a patient ongoing in the trial (as of August 2019): 50 weeks
